{
  "sequences": {"note": "By UniProt entry, the sequences of proteins in these tests, tags left out.", "UniProt P0A6A8": "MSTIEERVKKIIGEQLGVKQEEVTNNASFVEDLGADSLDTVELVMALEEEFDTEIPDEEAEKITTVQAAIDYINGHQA"},
  "source": "paper PMC8547962",
  "key": {"[1]": {"molecular_target": "P. falciparum Isd11 with C-terminal His6 tag expressed in E. coli (P. falciparum) (UniProt Q8IEK7)", "assay": "pull-down + SEC; clarified lysate of E. coli coexpressing ∆2–50 mACP-HA2 and His-tagged Isd11; Ni-NTA pulldown of Isd11, imidazole eluate run over an S-100 size-exclusion column; Coomassie-stained SDS-PAGE and tandem MS"}, "[2]": {"molecular_target": "P. falciparum Isd11 with C-terminal His6 tag expressed in E. coli (P. falciparum) (UniProt Q8IEK7)", "assay": "co-IP + pull-down; clarified lysates of E. coli coexpressing an HA2-tagged ACP construct and Isd11-His6; anti-HA IP or Ni-NTA pulldown, western blot with anti-HA and anti-His6"}},
  "note": "These are yes or no findings as the source states them, for the method shown. Binding seen in cells or lysates may run through a third protein. For some assays here: Binding can be weak; no strength is given.",
  "data": [
    {"molecule": "Endogenous E. coli acyl carrier protein (from UniProt P0A6A8 1-78)", "values": [
      {"measurement": "binding", "setting": "[1]", "value": "no binding"}
    ]},
    {"molecule": "Full-length P. falciparum mACP-HA2 expressed in E. coli (protein, UniProt Q8I0V5 1-157) MRRNIIQKILFNNKNITLCNTYKRGFIQVLLKHGMNSKGIQNGFYNNKYILSAQKNSAFFSTEKSQDLSSLSKEQIEEKILTVLKKYLPPDVEIKYDEELEKYNTKDNRAWDFLDTVEFLIDIESEFNITIPDETADNIKTVQEVIDYIIQLNIKKT", "values": [
      {"measurement": "binding", "setting": "[2]", "value": "binds"}
    ]}
  ]
}
